# The other results are listed elsewhere or left out. The list holds hits alone, and they repeat only in part.
# The chains behind the UniProt entries cited, without tags or fusion partners.
# IGF2BP3, O00425, UniProt O00425, whole entry: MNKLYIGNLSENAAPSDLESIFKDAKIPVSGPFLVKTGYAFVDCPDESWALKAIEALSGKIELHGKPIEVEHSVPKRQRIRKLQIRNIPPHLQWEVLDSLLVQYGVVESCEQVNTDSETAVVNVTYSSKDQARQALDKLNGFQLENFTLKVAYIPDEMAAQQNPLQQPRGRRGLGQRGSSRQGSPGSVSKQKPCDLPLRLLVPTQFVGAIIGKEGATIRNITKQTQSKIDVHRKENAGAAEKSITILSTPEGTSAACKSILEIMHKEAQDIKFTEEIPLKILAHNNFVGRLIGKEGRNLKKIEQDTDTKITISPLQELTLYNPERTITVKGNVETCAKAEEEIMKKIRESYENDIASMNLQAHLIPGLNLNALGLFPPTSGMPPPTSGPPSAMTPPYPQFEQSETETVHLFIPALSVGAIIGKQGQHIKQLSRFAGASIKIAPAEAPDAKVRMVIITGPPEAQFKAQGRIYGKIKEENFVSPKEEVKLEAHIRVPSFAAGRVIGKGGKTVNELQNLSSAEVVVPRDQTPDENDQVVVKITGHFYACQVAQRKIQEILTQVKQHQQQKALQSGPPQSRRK
# SNRPG, P62308, UniProt P62308, whole entry: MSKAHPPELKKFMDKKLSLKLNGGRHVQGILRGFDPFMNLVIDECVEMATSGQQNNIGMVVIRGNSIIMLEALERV
# DDX54, Q8TDD1, UniProt Q8TDD1, whole entry: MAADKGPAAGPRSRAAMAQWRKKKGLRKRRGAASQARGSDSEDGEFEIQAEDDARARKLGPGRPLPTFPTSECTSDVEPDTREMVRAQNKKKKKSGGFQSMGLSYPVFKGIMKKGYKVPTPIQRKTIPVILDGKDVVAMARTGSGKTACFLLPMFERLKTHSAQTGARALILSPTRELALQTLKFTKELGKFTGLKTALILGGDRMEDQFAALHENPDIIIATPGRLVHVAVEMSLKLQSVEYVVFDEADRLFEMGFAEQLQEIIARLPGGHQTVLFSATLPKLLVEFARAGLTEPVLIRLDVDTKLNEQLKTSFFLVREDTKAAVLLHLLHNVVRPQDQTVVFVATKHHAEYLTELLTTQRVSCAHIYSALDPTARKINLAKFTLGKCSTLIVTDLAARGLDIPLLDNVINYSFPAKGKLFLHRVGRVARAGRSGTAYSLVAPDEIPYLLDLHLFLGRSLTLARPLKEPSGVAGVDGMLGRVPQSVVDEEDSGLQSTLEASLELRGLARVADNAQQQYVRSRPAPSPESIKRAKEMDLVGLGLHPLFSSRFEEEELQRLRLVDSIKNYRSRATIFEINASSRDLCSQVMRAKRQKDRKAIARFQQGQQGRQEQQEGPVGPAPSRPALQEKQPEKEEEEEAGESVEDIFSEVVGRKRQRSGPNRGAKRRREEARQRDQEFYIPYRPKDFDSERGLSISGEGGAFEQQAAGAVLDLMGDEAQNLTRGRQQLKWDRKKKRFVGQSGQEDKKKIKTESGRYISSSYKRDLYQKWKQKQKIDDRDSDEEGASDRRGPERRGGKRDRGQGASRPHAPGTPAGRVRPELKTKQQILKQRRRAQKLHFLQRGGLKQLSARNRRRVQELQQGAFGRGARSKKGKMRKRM
# Columns and labels:
# Test in all cases: PRISMA enrichment of interactor (LFQ) in peptide spot vs all other peptide spots (log2 fold change); higher = stronger / more specific binding of the interactor to the peptide
# ACAD9, Q9H845 = biological target: ACAD9, Q9H845
# Procedure: (§1)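 PRISMA: 15-aa overlapping tiles (offset 8 aa) of 60 microproteins, plus SOS1/GLUT1 control peptides, were spot-synthesized on cellulose membranes in triplicate. Membranes were incubated with benzonase-treated HEK293T lysate, and bound proteins were identified by LC-MS/MS with LFQ. Enrichment is the log2 fold change of each protein in one spot versus all other spots. Only interactors passing the significance cutoff are listed.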
# AHCTF1, Q8WYP5 = biological target: AHCTF1, Q8WYP5
# Procedure: as §1
# ANKRD17, O75179 = biological target: ANKRD17, O75179
# Procedure: as §1
# ARL1, P40616 = biological target: ARL1, P40616
# Procedure: as §1
# ATP5PB, P24539 = biological target: ATP5PB, P24539
# Procedure: as §1
# CHMP5, Q9NZZ3 = biological target: CHMP5, Q9NZZ3
# Procedure: as §1
# CRKL, P46109 = biological target: CRKL, P46109
# Procedure: as §1
# CTBP2, P56545 = biological target: CTBP2, P56545
# Procedure: as §1
# DDX42, Q86XP3 = biological target: DDX42, Q86XP3
# Procedure: as §1
# DHCR24, Q15392 = biological target: DHCR24, Q15392
# Procedure: as §1
# EBNA1BP2, Q99848 = biological target: EBNA1BP2, Q99848
# Procedure: as §1
# FAM76B, Q5HYJ3 = biological target: FAM76B, Q5HYJ3
# Procedure: as §1
# GNAS = biological target: GNAS
# Procedure: as §1
# GTF2E2, P29084 = biological target: GTF2E2, P29084
# Procedure: as §1
# HMMR, O75330 = biological target: HMMR, O75330
# Procedure: as §1
# IGF2BP3, O00425 = biological target: IGF2BP3, O00425
# Procedure: as §1
# KIF20A, O95235 = biological target: KIF20A, O95235
# Procedure: as §1
# LLPH, Q9BRT6 = biological target: LLPH, Q9BRT6
# Procedure: as §1
# MRPL14, Q6P1L8 = biological target: MRPL14, Q6P1L8
# Procedure: as §1
# MTA1, Q13330 = biological target: MTA1, Q13330
# Procedure: as §1
# NHP2, Q9NX24 = biological target: NHP2, Q9NX24
# Procedure: as §1
# NOC2L, Q9Y3T9 = biological target: NOC2L, Q9Y3T9
# Procedure: as §1
# NSA2, O95478 = biological target: NSA2, O95478
# Procedure: as §1
# NUP62, P37198 = biological target: NUP62, P37198
# Procedure: as §1
# POLR2A, P24928 = biological target: POLR2A, P24928
# Procedure: as §1
# PPP1R2, P41236 = biological target: PPP1R2, P41236
# Procedure: as §1
# SACS, Q9NZJ4 = biological target: SACS, Q9NZJ4
# Procedure: as §1
# SNRPG, P62308 = biological target: SNRPG, P62308
# Procedure: as §1
# TIMM8B, Q9Y5J9 = biological target: TIMM8B, Q9Y5J9
# Procedure: as §1
# TKT, P29401 = biological target: TKT, P29401
# Procedure: as §1
# TRMT112, Q9UI30 = biological target: TRMT112, Q9UI30
# Procedure: as §1
# UBIAD1, Q9Y5Z9 = biological target: UBIAD1, Q9Y5Z9
# Procedure: as §1
# YTHDC2, Q9H6S0 = biological target: YTHDC2, Q9H6S0
# Procedure: as §1
# ACADSB, P45954 = biological target: ACADSB, P45954
# Procedure: as §1
# CSNK1E, P49674 = biological target: CSNK1E, P49674
# Procedure: as §1
# CSTF3, Q12996 = biological target: CSTF3, Q12996
# Procedure: as §1
# DDX54, Q8TDD1 = biological target: DDX54, Q8TDD1
# Procedure: as §1
# DPM1, O60762 = biological target: DPM1, O60762
# Procedure: as §1
# GPS1, Q13098 = biological target: GPS1, Q13098
# Procedure: as §1
# GTF3C1, Q12789 = biological target: GTF3C1, Q12789
# Procedure: as §1
# PHF10, Q8WUB8 = biological target: PHF10, Q8WUB8
# Procedure: as §1
# PINX1, Q96BK5 = biological target: PINX1, Q96BK5
# Procedure: as §1
# RRAS2, P62070 = biological target: RRAS2, P62070
# Procedure: as §1
# SPAST, Q9UBP0 = biological target: SPAST, Q9UBP0
# Procedure: as §1
# TSR1, Q2NL82 = biological target: TSR1, Q2NL82
# Procedure: as §1
binder,measurement,setting,value
LNGKLKSPLGTSVTI [CTC-471J1.11],PRISMA enrichment of interactor (log2),"ACAD9, Q9H845",4.19
same,PRISMA enrichment of interactor (log2),"AHCTF1, Q8WYP5",7.08
same,PRISMA enrichment of interactor (log2),"ANKRD17, O75179",5.6
same,PRISMA enrichment of interactor (log2),"ARL1, P40616",6.01
same,PRISMA enrichment of interactor (log2),"ATP5PB, P24539",4.66
same,PRISMA enrichment of interactor (log2),"CHMP5, Q9NZZ3",5.16
same,PRISMA enrichment of interactor (log2),"CRKL, P46109",5.25
same,PRISMA enrichment of interactor (log2),"CTBP2, P56545",6.95
same,PRISMA enrichment of interactor (log2),"DDX42, Q86XP3",5.91
same,PRISMA enrichment of interactor (log2),"DHCR24, Q15392",9.12
same,PRISMA enrichment of interactor (log2),"EBNA1BP2, Q99848",4.94
same,PRISMA enrichment of interactor (log2),"FAM76B, Q5HYJ3",4.61
same,PRISMA enrichment of interactor (log2),GNAS,8.72
same,PRISMA enrichment of interactor (log2),"GTF2E2, P29084",6.3
same,PRISMA enrichment of interactor (log2),"HMMR, O75330",5.81
same,PRISMA enrichment of interactor (log2),"IGF2BP3, O00425",7.34
same,PRISMA enrichment of interactor (log2),"KIF20A, O95235",5.34
same,PRISMA enrichment of interactor (log2),"LLPH, Q9BRT6",5.52
same,PRISMA enrichment of interactor (log2),"MRPL14, Q6P1L8",8.05
same,PRISMA enrichment of interactor (log2),"MTA1, Q13330",8.53
same,PRISMA enrichment of interactor (log2),"NHP2, Q9NX24",5.04
same,PRISMA enrichment of interactor (log2),"NOC2L, Q9Y3T9",7.69
same,PRISMA enrichment of interactor (log2),"NSA2, O95478",5.84
same,PRISMA enrichment of interactor (log2),"NUP62, P37198",4.42
same,PRISMA enrichment of interactor (log2),"POLR2A, P24928",5.27
same,PRISMA enrichment of interactor (log2),"PPP1R2, P41236",6.23
same,PRISMA enrichment of interactor (log2),"SACS, Q9NZJ4",6.04
same,PRISMA enrichment of interactor (log2),"SNRPG, P62308",5.47
same,PRISMA enrichment of interactor (log2),"TIMM8B, Q9Y5J9",5.44
same,PRISMA enrichment of interactor (log2),"TKT, P29401",5.29
same,PRISMA enrichment of interactor (log2),"TRMT112, Q9UI30",8.51
same,PRISMA enrichment of interactor (log2),"UBIAD1, Q9Y5Z9",4.03
same,PRISMA enrichment of interactor (log2),"YTHDC2, Q9H6S0",4.59
WTPAARACGTRHPST [THAP7],PRISMA enrichment of interactor (log2),"ACADSB, P45954",5.39
same,PRISMA enrichment of interactor (log2),"CSNK1E, P49674",5.1
same,PRISMA enrichment of interactor (log2),"CSTF3, Q12996",6.13
same,PRISMA enrichment of interactor (log2),"DDX54, Q8TDD1",6.07
same,PRISMA enrichment of interactor (log2),"DPM1, O60762",7.28
same,PRISMA enrichment of interactor (log2),"GPS1, Q13098",4.26
same,PRISMA enrichment of interactor (log2),"GTF3C1, Q12789",4.69
same,PRISMA enrichment of interactor (log2),"PHF10, Q8WUB8",4.02
same,PRISMA enrichment of interactor (log2),"PINX1, Q96BK5",5.34
same,PRISMA enrichment of interactor (log2),"RRAS2, P62070",4.13
same,PRISMA enrichment of interactor (log2),"SPAST, Q9UBP0",4.42
same,PRISMA enrichment of interactor (log2),"TSR1, Q2NL82",5.14

# Laid out differently: entries from further up
binder	measurement	setting	value
LNGKLKSPLGTSVTI [CTC-471J1.11]	PRISMA enrichment of interactor (log2)	SNRPG, P62308	5.47
same	PRISMA enrichment of interactor (log2)	TIMM8B, Q9Y5J9	5.44
same	PRISMA enrichment of interactor (log2)	TKT, P29401	5.29

# Source: the supplement of paper PMC10032668
